The record followed here is paper PMC11781186.

Amino acid sequences for entries named in this document (tags omitted). Residues count along the entry.
UniProt P29317, residues 24-976: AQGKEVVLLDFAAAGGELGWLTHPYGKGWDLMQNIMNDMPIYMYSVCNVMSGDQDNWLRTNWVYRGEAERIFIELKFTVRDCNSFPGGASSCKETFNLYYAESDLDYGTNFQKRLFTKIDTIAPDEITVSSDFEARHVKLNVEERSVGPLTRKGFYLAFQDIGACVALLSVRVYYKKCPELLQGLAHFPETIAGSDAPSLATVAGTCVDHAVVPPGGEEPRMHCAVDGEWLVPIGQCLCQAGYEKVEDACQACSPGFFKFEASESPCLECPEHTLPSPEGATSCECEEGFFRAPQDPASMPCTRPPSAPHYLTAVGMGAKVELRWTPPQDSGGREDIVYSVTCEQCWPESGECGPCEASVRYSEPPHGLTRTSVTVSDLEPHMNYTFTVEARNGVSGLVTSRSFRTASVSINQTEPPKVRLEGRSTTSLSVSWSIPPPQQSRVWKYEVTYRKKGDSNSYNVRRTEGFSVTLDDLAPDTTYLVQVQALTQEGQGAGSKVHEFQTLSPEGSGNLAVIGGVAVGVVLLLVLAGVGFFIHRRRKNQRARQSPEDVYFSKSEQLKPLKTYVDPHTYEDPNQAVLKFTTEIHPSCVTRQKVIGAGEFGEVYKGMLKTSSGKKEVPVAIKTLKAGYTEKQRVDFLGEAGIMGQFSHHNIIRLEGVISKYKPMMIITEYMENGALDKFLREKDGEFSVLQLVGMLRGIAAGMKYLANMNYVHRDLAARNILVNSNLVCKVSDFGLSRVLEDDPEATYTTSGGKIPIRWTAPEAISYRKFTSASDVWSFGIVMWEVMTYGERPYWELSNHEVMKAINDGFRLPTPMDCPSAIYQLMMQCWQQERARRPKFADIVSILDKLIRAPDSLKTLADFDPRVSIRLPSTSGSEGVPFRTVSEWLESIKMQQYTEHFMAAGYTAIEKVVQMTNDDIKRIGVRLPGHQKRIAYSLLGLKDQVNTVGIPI
UniProt P45974: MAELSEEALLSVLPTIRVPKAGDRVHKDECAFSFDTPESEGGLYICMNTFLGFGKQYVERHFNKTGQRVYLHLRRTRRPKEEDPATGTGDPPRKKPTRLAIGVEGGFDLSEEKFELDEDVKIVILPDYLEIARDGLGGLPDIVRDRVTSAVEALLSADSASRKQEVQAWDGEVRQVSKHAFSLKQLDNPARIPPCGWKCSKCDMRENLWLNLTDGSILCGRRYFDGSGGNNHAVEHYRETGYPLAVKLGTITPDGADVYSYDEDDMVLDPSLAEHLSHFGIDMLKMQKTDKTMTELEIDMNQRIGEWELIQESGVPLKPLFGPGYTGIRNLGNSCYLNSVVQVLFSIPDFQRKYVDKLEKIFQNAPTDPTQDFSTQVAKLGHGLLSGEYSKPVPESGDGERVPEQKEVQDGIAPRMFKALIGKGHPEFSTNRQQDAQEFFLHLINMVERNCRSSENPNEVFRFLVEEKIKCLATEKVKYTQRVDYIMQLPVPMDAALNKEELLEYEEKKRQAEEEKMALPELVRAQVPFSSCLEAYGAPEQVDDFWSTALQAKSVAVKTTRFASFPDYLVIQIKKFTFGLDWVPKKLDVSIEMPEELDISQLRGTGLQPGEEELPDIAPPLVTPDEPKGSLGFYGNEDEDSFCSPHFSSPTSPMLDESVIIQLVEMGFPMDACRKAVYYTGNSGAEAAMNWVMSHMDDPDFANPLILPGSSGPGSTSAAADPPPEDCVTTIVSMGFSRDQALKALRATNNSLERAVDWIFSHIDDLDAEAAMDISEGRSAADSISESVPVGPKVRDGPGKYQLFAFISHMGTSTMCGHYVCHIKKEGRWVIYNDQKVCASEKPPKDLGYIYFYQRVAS

The target of the assay is ephrinA2 receptor (EphA2), endogenous (human (endogenous in HK1 and 5-8F)) (UniProt P29317). Briefly: affinity purification with mass spectrometry; immunoprecipitation of EphA2 from NPC cells and mass spectrometry (IP-MS); USP5 peptide … matched by Mascot.

Results are given in words; binding and its absence hold for the method and conditions named. Binding seen in cells or lysates may run through a third protein. A yes stands for co-enrichment or nearness to the bait. Other partners may have been found.

“ubiquitin specific peptidase 5 (USP5), endogenous (from UniProt P45974 1-858) (enzyme)”: the binding entry was “binds”.
